Ends that are not written are not given here.
Test: general procedure: Fmoc solid-phase peptide synthesis; Fmoc-lys (boc) Wang resin; DIC
Settings: whole synthesis, scale 1 g resin

## MEPGGARLRLQRTEGLGGERERQPCGDGNTETHRAPDLVQWYGRKKRRQRRRK-OH
  final HPLC purity: about 95.46%
